Article PMC3351392
Results are given in words; binding and its absence hold for the method and conditions named. In cells and extracts the contact can be indirect. Binding can be weak; no strength is given.

By UniProt entry, the sequences of proteins in these tests, tags left out. Where a name states a change or a piece, a line headed by the entry shows the natural chain unless it says otherwise.
UniProt Q92558: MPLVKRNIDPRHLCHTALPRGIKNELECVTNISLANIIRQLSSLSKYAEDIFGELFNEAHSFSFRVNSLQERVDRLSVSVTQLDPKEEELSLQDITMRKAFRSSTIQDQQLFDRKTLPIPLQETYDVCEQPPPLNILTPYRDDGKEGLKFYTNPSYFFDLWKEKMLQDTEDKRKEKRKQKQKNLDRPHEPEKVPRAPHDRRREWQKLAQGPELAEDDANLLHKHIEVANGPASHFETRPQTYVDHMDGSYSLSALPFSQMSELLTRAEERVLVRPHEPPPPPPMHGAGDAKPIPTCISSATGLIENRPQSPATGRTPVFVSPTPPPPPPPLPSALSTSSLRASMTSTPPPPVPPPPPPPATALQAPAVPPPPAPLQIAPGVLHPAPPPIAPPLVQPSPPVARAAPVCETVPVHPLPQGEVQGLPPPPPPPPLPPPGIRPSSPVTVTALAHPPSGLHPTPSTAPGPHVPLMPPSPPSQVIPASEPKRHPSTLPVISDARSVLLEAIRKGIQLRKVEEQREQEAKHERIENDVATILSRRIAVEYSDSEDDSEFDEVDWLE

Key:
[1] = target: Flag-tagged full length WAVE1 (UniProt Q92558); test: co-IP; co-expression of tagged proteins in cells, immunoprecipitation from pre-cleared lysates, Western blotting
[2] = target: Flag-WAVE1 lacking the proline peptide used as bait (WAVE1 ΔPro) (UniProt Q92558); test: as above

binding [1]: binds | binding [2]: binds
Substance: GFP-Enah (from UniProt Q03173-3)
